The assay can be described thus: qHTS Assay for Lipid Storage Modulators in Drosophila S3 Cells.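 On cell number change: cells counted by Cell Tracker Red CMTPX staining in the red channel.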 Particulars: BODIPY lipid droplet fluorescence, 18-24 h; for cell number change: measured here: cell count max response, cells fed with added oleic acid. In a few lines:
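Drosophila S3 cells got compounds at several concentrations plus oleic acid (400 uM solution). Laser-scanning cytometry with 488 nm excitation read lipid droplets at 500-530 nm and cells at 575-640 nm. Percent activity was relative to 20 uM Triacsin C.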

[1] abbreviates: measured here: cell number channel AC50, cells fed with added oleic acid.
The mark [2] stands for this setting: measured here: lipid fluorescence (Fed channel) AC50, cells fed with added oleic acid.

Structures are written as SMILES. Some of the results follow. Shown are side measurements of this screen, not its main read-out; they come without a call. Compounds called inactive in the main read-out are mostly missing here. Potencies come from curve fits of mixed quality, noted in brackets.

Take `O=C(Cc1ccc(F)cc1)c1ccc(O)cc1O`: the cell number change was 54.8%. The half-maximal activity concentration (AC50) under setting [1] is 20.6 µM [rising, single point].

On to `COc1cccc(C=Nc2cccc3c(=O)[nH][nH]c(=O)c23)c1O`, for which the cell number change was -27.1%. In addition, the concentration at half-maximal activity (AC50) under setting [1] is 1.3 µM [falling, full curve, poor fit].

Take `Cc1ccccc1C(=O)NNC(=O)c1ccc(F)cc1`: the cell number change was 26.1%. The concentration at half-maximal activity (AC50) under setting [2] is 29.1 µM [rising, single point].

`CCOc1ccc(NC(=O)c2cccc(-n3cccc3)c2)cc1S(=O)(=O)N1CCOCC1`: the cell number change came out at 9.35%. Further, the AC50 under setting [2] was 29.1 µM [rising, single point].

Turning to `CC(=O)Nc1cccc(NC(=O)CSc2nnc3ccc(-c4ccccn4)nn23)c1`, the cell number change was -15.5%.

In the case of `CC1CCC(C(C)C)C(=O)/C1=C/c1ccc(N)cc1` (stereo unspecified), the cell number change was 2.06%. Moreover, the AC50 under setting [2] is 0.651 µM [falling, full curve].

For `CCNc1nc(SCCOc2ccc(Cl)cc2Cl)nc(N(C)C)n1`, the cell number change was -30.7%. Further, the half-maximal activity concentration (AC50) under setting [1] is 32.6 µM [falling, single point]. For the same molecule, the half-maximal activity concentration (AC50) under setting [2] was 29.1 µM [falling, single point].

`Cc1sc2nc(C(C)C)nc(SCC(=O)N3c4ccccc4CC3C)c2c1C` (stereo unspecified): the cell number change was 15.4%. In addition, the AC50 under setting [2] was 0.82 µM [rising, full curve].

With `CCC(=O)N1CCc2cc(OC)c(OC)cc2C1COc1ccc(F)cc1` (stereo unspecified), the cell number change is 5.63%. The concentration at half-maximal activity (AC50) under setting [2] was 0.461 µM [rising, partial curve, poor fit].

Consider `Cc1ccc(C)c(NC(=O)COC(=O)Cc2ccsc2)c1`, for which the AC50 under setting [1] is 6.51 µM [rising, single point].

Consider `O=C(COc1ccc(F)cc1)N1CCCCCCC1`, for which the cell number change is 20.2%. In addition, under setting [1], the half-maximal activity concentration (AC50) is 0.00411 µM [rising, full curve, poor fit].

On to `Cc1cc(Cl)ccc1NC(=O)CN1CCN(C(=O)c2ccco2)CC1`, for which the AC50 under setting [2] is 6.51 µM [falling, partial curve].

For the molecule `Cc1ccc(S(=O)(=O)N2CCNC(=O)C2)c(C)c1`, the cell number change is -24.5%. In addition, the AC50 under setting [1] is 0.00411 µM [falling, full curve, poor fit].

With `Cc1ccc(Nc2cc(-n3nc(C)cc3C)ncn2)c(C)c1`, the cell number change is -57.1%. In addition, the AC50 under setting [1] is 20.6 µM [falling, single point]. Besides, under setting [2], the AC50 is 18.4 µM [falling, partial curve, poor fit].

For `COc1ccc(C2=NOC(Cn3nc(C(=O)NCc4ccc(C)cc4)cc3-c3ccccc3)C2)cc1` (stereo unspecified), the cell number change is -14.9%.

On to `Cc1ccc(Cn2c(=O)sc3ccccc3c2=O)cc1`, for which, under setting [1], the AC50 was 6.51 µM [rising, single point].

Regarding `O=C(NCC(c1ccco1)N1CCCC1)c1cccc(S(=O)(=O)Nc2ccc(F)cc2)c1` (stereo unspecified), the cell number change is -22.5%.

Regarding `O=S(=O)(N/N=C\c1ccccc1O)c1ccc(Cl)cc1`, the AC50 under setting [1] is 5.8 µM [falling, single point].
